Laboratory results taken from patent US20150266962A1.
These are yes or no findings as the source states them, for the method shown. Some entries that bind do so weakly or less than the wild type.

Protein sequences, listed by entry. Tags and fused reporters are not part of them. Residues count along the entry.
UniProt P35225, residues 35-146: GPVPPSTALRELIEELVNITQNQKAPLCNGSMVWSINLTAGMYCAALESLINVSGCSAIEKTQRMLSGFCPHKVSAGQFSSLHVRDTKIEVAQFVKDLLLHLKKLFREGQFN

Tests used:
IL-13 [1] = biological target: IL-13 (UniProt P35225); assay: competition ELISA, competitor of biotinylated IL-13Rα2-Fc for IL-13 (FIG. 3)
IL-13 [2] = biological target: IL-13 (UniProt P35225); assay: competition ELISA: IL-13 captured on an anti-Flag coated plate, constant amounts of IL-13 and biotinylated IL-13Rα2-Fc (the competitor), detected with streptavidin-HRP

binding (IL-13 [1]): binds
binding (IL-13 [2]): binds
B1: naked IL-13Rα2 (positive control competitor) (receptor, not shown: a dimerising Fc or GST; large carriers; small tags and cut ends)
chain: DTEIKVNPPQDFEIVDPGYLGYLYLQWQPPLSLDHFKECTVEYELKYRNIGSETWKTIITKNLHYKDGFDLNKGIEAKIHTLLPWQCTNGSEVQSSWAETTYWISPQGIPETKVQDMDCVYYNWQYLLCSWKPGIGVLLDTNYNLFYWYEGLDHALQCVDYIKADGQNIGCRFPYLEASDYKDFYICVNGSSENKPIRSSYFTFQLQNIVKPLPPVYLTFTRESSCEIKLKWSIPLGPIPARCFDYEIEIREDDTTLVTATVENETYTLKTTNETRQLCFVVRSKVNIYCSDDGIWSEWSDKQCWEGEDLSKKTLLR
